Measurements as given in PubChem BioAssay AID493014 (National Center for Advancing Translational Sciences (NCATS), 2011).
The other results are listed elsewhere or left out. Shown are side measurements of this screen, not its main read-out; they come without a call. Compounds called inactive in the main read-out are mostly missing here. Potencies come from curve fits of mixed quality, noted in brackets.

Assay: qHTS Assay to Find Inhibitors of Chronic Active B-Cell Receptor Signaling
Settings: ABC-DLBCL IkBa-CBG/CBR reporter, luminescence ratio (green luciferase fused to IkBa over red control in TMD8 lymphoma cells), 4 h
Procedure, shortened: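 Cell line TMD8 (human ABC DLBCL), stably expressing tet-inducible CBG68-IkBa fusion and CBR; IMDM/0.5% FBS; cpd up to 46 uM; dox induction, 4 h, 37C/5% CO2; dual luminescence; green/red ratio; MG132 control.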

[1] = measured here: CBR red luminescence, cell number
[2] = measured here: IkBa-CBG green luminescence

Row | SMILES | AC50 [1] | AC50 [2]
1 | Cc1ccccc1C1C2=C(Nc3[nH]n(-c4ccccc4)c(=O)c31)c1ccccc1C2=O (stereo unspecified) | 29.1 µM [falling, single point] | 
2 | O=C(N/N=C/c1cccnc1)c1ccccc1 | 12.6 µM [falling, partial curve] | 
3 | COc1ccccc1/C=C/C(=O)NC(=S)Nc1ccccn1 | 15.8 µM [falling, partial curve] | 
4 | COc1ccc(-c2cc(=O)c3ccccc3o2)cc1 | 1.26 µM [rising, full curve, poor fit] | 
5 | O=C(CSc1ccc([N+](=O)[O-])cc1)Nc1cccc(S(=O)(=O)Nc2ccccc2F)c1 | 15.8 µM [falling, single point] | 
6 | CCOc1ccccc1N1CCN(CC(=O)Nc2nnc(CC)s2)CC1 | 20.6 µM [falling, single point] | 
7 | Cc1ccc(S(=O)(=O)Nc2nc(C)c(C(=O)NN)s2)cc1 | 10 µM [falling, partial curve, poor fit] | 
8 | Fc1ccccc1C1c2[nH]c3ccccc3c2CCN1Cc1cccn1-c1ncccn1 (stereo unspecified) | 20 µM [falling, partial curve, poor fit] | 
9 | O=C(CSc1ccccn1)C12CC3CC(CC(C3)C1)C2 | 10 µM [rising, partial curve] | 
10 | CC(C)(C)NC[C@@H](O)COc1cccc2c1CCCC2=O | 18.4 µM [rising, single point] | 
11 | COc1ccc(C(CNC(=O)c2cncc(Br)c2)N(C)C)cc1 (stereo unspecified) | 35.5 µM [falling, single point] | 
12 | O=C1CC(c2ccccc2)=NN1c1ccc([N+](=O)[O-])cc1 | 25.1 µM [falling, single point] | 
13 | COc1cccc(NC(=O)COC(=O)c2c(F)cccc2Cl)c1 | 0.447 µM [falling, partial curve, poor fit] | 
14 | O=c1[nH]c(-c2ccc(-c3cccc(Cl)c3)o2)nc2ccccc12 | 0.13 µM [rising, full curve, poor fit] | 
15 | CC(C)(Oc1ccc(CCNC(=O)c2ccc(-c3ccc(Cl)cc3)o2)cc1)C(=O)O | 15.8 µM [falling, partial curve, poor fit] | 
16 | O=C(Cc1cccs1)NNC(=S)NC(=O)c1ccco1 | 22.4 µM [falling, partial curve] | 
17 | O=C1C(=O)N(CC2COc3ccccc3O2)c2ccccc21 (stereo unspecified) | 17.8 µM [rising, single point] | 
18 | CCN1CCN(Cc2ccc(NC(=O)Nc3ccccc3OC)cc2)CC1 | 23.1 µM [falling, single point] | 
19 | Cc1occc1C(=O)N/N=C/c1ccc(Cl)c([N+](=O)[O-])c1 | 14.6 µM [falling, partial curve] | 
20 | CC(C)(C)S(=O)(=O)/C(C#N)=N/Nc1ccc(C#N)cc1 | 35.5 µM [rising, single point] | 
21 | COc1ccc(CNC(=O)C[C@H]2C(=O)N(c3ccccc3)C[C@@H]2Cc2ccccc2)cc1 | 17.8 µM [falling, partial curve, poor fit] | 

Exported field by field: part of the list above.
CCN1CCN(Cc2ccc(NC(=O)Nc3ccccc3OC)cc2)CC1
  AC50 [1]: 23.1 µM [falling, single point]
Cc1occc1C(=O)N/N=C/c1ccc(Cl)c([N+](=O)[O-])c1
  AC50 [1]: 14.6 µM [falling, partial curve]
CC(C)(C)S(=O)(=O)/C(C#N)=N/Nc1ccc(C#N)cc1
  AC50 [1]: 35.5 µM [rising, single point]

(more compounds)

Row | SMILES | AC50 [1] | AC50 [2]
22 | Cc1ccc(S(=O)(=O)N/N=C/c2cccc([N+](=O)[O-])c2)cc1 | 14.6 µM [falling, partial curve, poor fit] | 
23 | COCCN1CCN(C(=O)C2CCC(=O)N(Cc3ccccc3F)C2)CC1 (stereo unspecified) | 5.62 µM [rising, single point] | 
24 | CCC(C)(C)n1nnnc1C(c1ccc(O)c(OC)c1)N1CCc2ccccc2C1 (stereo unspecified) | 7.94 µM [falling, partial curve] | 
25 | CN1CCC(N(C)S(=O)(=O)c2ccc(NC(=O)COc3ccc(Br)cc3Cl)cc2)CC1 | 29.1 µM [falling, single point] | 
26 | CCCCN(C)CCNC(=O)c1cc2c(-c3ccccc3F)nn(C)c2s1 | 17.8 µM [falling, single point] | 
27 | Cc1cc(NC(=O)CSc2nnc(-c3ccc(Cl)s3)o2)no1 | 10 µM [rising, partial curve] | 
28 | CC(=O)Nc1ccc(S(=O)(=O)N2c3ccccc3C(C)=CC2(C)C)cc1 | 7.94 µM [rising, partial curve, poor fit] | 4.47 µM [falling, full curve]
29 | Cc1ccc(CNC(=O)c2c[nH]c3ccc(S(=O)(=O)Nc4ccc(C(C)C)cc4)cc3c2=O)cc1 | 22.4 µM [falling, single point] | 
30 | COc1cc(Cl)c(C)cc1NC(=O)CN1CCCCCC1 | 20 µM [falling, partial curve] | 
31 | Cc1ccc(/C=N/NC(=O)c2nnn(-c3nonc3N)c2C)o1 | 0.562 µM [rising, full curve, poor fit] | 
32 | CCCNc1nc(-c2ccccc2)c(C(=O)OCC)cc1C#N | 25.9 µM [rising, partial curve] | 16.4 µM [falling, partial curve]
33 | COc1ccc(CCNC(=O)c2ccc(COc3ccccc3OC)o2)cc1 | 11.2 µM [falling, partial curve] | 
34 | CCC(Sc1nc2ccc(C)cc2[nH]1)C(=O)O (stereo unspecified) | 2.06 µM [rising, full curve, poor fit] | 
35 | COc1ccc2c(c1)c(=O)oc1cc(O)ccc12 | 12.6 µM [rising, partial curve, poor fit] | 
36 | C=CCN1C(=O)CSc2ccc(C(=O)NC3CCCCC3)cc21 | 11.2 µM [falling, partial curve] | 
37 | COc1cc(C(C(=O)NC(C)(C)C)N(C(=O)CNC(=O)c2cccs2)c2cccnc2)cc(OC)c1OC (stereo unspecified) | 7.94 µM [rising, partial curve] | 
38 | CCCc1nnc(NC(=O)C23CC4CC(CC(C4)C2)C3)s1 | 14.1 µM [falling, partial curve, poor fit] | 
39 | O=C(Nc1ccccc1)C1=C[C@H](c2csc3ccccc23)C[C@H](OCCCCO)O1 | 20 µM [falling, partial curve, poor fit] | 
40 | COc1ccc(C2NCCc3cc(OC)c(OC)cc32)cc1OC (stereo unspecified) | 11.2 µM [rising, partial curve] | 
41 | CCOC(=O)C1=C(c2ccccc2)OC(N)=C(C#N)C1c1ccc(Cl)s1 (stereo unspecified) | 2.82 µM [falling, full curve, poor fit] | 
42 | CCCC(NC(=O)CCl)c1ccccc1 (stereo unspecified) | 8.2 µM [falling, partial curve, poor fit] | 

Row | SMILES | AC50 [1] | AC50 [2]
43 | COc1ccc(C(c2c(C)n(C)n(-c3ccccc3)c2=O)c2c(C)n(C)n(-c3ccccc3)c2=O)cc1OC | 0.501 µM [falling, partial curve, poor fit] | 
44 | Cc1ccc(N(Cc2cc(=O)[nH]c3ccccc23)C(=O)C(C)C)c(C)c1 | 17.8 µM [falling, single point] | 
45 | CCOC(=O)c1[nH]c2ccc(OC)cc2c1C | 3.16 µM [rising, full curve] | 
46 | COc1ccc(CN(Cc2ccc(C(=O)O)cc2)C(=S)Nc2ccc(C)cc2)cc1OC | 20 µM [falling, single point] | 
47 | COC(=O)c1[nH]c2cc(OC)ccc2c1NC(=O)CCN1CCN(c2ccccc2)CC1 | 13 µM [rising, partial curve, poor fit] | 
48 | COc1ccc(C(c2c(O)nc[nH]c2=O)c2c(O)nc[nH]c2=O)cc1 | 3.55 µM [rising, partial curve, poor fit] | 
49 | CC(C)(C)C1CCc2c(sc3c2C(=O)NC(c2ccco2)N3)C1 (stereo unspecified) |  | 20.6 µM [rising, partial curve, poor fit]
50 | CCC(C)N(C(=O)COC(=O)CSc1ccc(C)c(C)c1)C1CCS(=O)(=O)C1 (stereo unspecified) | 0.00411 µM [rising, full curve, poor fit] | 
51 | CC(C)c1ccc(N2C(=O)/C(=C/N(C)C)SC2=S)cc1 | 7.08 µM [rising, partial curve] | 
52 | COc1ccc(CN2CCCCC2C)cc1C (stereo unspecified) | 3.26 µM [rising, partial curve, poor fit] | 
53 | CCc1ccc2c(CN3CCc4ccccc43)cc(=O)oc2c1 | 35.5 µM [rising, single point] | 22.4 µM [falling, single point]
54 | Cc1cc(NC(=O)c2nn3cccnc3c2Cl)no1 | 0.517 µM [rising, partial curve, poor fit] | 
55 | c1ccc2c(c1)Cn1c-2nc2ccccc21 | 29.1 µM [falling, single point] | 
56 | CCC(C)OC(=O)C[N+](C)(C)CCOC1CC2CCC1(C)C2(C)C (stereo unspecified) | 14.1 µM [falling, single point] | 
57 | CCCC(=O)C1=C(O)C(C(=O)OC)C(C)(C)CC1=NCCc1ccc(OC)c(OC)c1 (stereo unspecified) | 25.1 µM [rising, partial curve, poor fit] | 
58 | COc1cc(/C=C2/C(=O)N(c3ccc(C(=O)O)cc3)N=C2C)cc(OC)c1O | 4.47 µM [falling, full curve] | 
59 | Cc1[nH]c2ccc(OCc3ccccc3)cc2c1CCN1C(=O)OC(C)(C)C1(C)O (stereo unspecified) | 0.116 µM [rising, single point] | 
60 | CN(C(=O)c1cccc(Nc2ccc(-c3ccc4c(c3)OCCO4)nn2)c1)C1CCCCC1 | 14.6 µM [falling, partial curve] | 
61 | CCOC(=O)c1c(C)[nH]c(C)c1C(=O)CSc1nc2ccccc2n1CCC#N | 0.092 µM [rising, full curve, poor fit] | 
62 | CC1=NNC(=O)C1CCC(=O)N/N=C(\C)c1ccc(Cl)cc1 (stereo unspecified) | 5.62 µM [rising, single point] | 
63 | Cc1ccc(-c2ccc(/C=N/NC(=O)c3ccccc3O)o2)cc1 | 5.62 µM [falling, full curve] | 
